Test results as given in patent US20260102495A1, “METHOD FOR PRODUCING ONE OR SEVERAL SHARED CANCER EPITOPE(S) DERIVED FROM ALTERNATIVE TRANSLATIONAL CONTROL” (CENTRE LEON BERARD, priority 2022, published 2026).
Part of at least one peptide drawing is inferred or uncertain, most often the ends. No end group written: not given here.

Tested on: CD8+ naive T cells
Experiment: PBMCs priming assay on HLA-A*02:01 healthy donors with dextramer analysis
Format: cell-based, human

LLLEATANL [PR3]
donors in which priming of peptide specific CD8+ T cells was identified (12 different donors, FIG. 2B): 4 donors | dextramer positive CD8+ T cells (after 12 days priming with peptide pulsed MoDCs, FIG. 2A): 0.094%
